This note sets out measurements from patent publication US12673109.

Amino acid sequences for entries named in this document (tags omitted). A change or cut given only in a name is not applied to a line headed by its entry.
UniProt P60568: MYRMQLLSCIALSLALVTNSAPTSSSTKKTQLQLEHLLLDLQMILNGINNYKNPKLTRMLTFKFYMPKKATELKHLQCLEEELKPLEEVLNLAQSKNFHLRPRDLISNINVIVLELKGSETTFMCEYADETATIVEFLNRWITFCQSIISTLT

These are yes or no findings as the source states them, for the method shown. Some results given as binding are weak or reduced against the parent protein; the word gives no strength.

The target of the experiment is T1, IL-2 receptor (IL-2R) on mouse CD3+CD4+ T cells (sub-population corresponding to regulatory T cells) (mouse) (UniProt P01590+P16297+P34902).
T1 sequence (looked up) 1: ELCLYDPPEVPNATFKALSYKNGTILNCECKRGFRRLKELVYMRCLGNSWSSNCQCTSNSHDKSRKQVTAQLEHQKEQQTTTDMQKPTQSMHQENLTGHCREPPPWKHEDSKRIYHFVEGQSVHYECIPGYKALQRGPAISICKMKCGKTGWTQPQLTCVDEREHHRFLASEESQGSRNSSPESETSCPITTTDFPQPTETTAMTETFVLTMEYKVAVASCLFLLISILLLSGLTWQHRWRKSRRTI
T1 sequence (looked up) 2: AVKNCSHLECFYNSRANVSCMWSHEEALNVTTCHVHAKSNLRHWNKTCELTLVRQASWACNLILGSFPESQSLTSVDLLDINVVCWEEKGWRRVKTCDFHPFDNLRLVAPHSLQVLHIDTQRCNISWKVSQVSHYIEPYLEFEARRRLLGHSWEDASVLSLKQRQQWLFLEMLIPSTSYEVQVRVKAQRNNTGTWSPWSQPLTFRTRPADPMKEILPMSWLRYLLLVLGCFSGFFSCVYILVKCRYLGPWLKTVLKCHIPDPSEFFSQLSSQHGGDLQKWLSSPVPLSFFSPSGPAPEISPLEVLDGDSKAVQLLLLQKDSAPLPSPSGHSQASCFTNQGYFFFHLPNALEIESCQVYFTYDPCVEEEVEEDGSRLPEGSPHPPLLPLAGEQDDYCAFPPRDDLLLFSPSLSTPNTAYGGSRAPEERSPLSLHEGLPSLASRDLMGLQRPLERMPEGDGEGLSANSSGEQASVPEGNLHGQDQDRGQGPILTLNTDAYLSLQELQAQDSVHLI
T1 sequence (looked up) 3: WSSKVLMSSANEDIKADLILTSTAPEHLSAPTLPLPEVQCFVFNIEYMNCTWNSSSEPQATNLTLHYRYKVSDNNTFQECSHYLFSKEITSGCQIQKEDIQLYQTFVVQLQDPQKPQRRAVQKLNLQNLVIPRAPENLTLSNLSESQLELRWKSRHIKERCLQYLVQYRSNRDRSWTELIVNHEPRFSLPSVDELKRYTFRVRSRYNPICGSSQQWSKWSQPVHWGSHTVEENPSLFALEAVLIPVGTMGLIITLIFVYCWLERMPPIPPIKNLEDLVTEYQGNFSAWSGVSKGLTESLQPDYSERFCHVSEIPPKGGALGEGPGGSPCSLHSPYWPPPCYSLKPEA
As to the kind of experiment: flow cytometry (FACS): FITC-IL-2 incubated 1 h at 4 °C with sorted mouse CD3+CD4+ T cells, washed at 4 °C to prevent receptor internalization. In general terms: A flow cytometer gives signals particle by particle.

On to “IL2-FITC conjugate (recombinant human IL-2, SEQ ID NO:4, conjugated with FITC-maleimide) (from UniProt P60568 21-153) (ligand)”, for which the binding entry is recorded as “binds”.
